The list shows a part of the results, in another mix than the full data. At the low end of the ranking the order means little.
Assays:
Assay in all cases: DAPPL (digital affinity profiling via proximity ligation, sequencing)
Details in all cases: 10 mM Tris-HCl pH 7.5, 50 mM NaCl, 1 mM DTT, 4% glycerol, room temperature, 30 min; GST-TFs on glutathione beads, 16-mer random dsDNA library, 0.1% …; high values mean tight binding; double strand, one strand shown; scale: fold enrichment (6-mer frequency, TF over GST control)
[1] = biological target: T1, FEV (UniProt Q99581)
T1 sequence: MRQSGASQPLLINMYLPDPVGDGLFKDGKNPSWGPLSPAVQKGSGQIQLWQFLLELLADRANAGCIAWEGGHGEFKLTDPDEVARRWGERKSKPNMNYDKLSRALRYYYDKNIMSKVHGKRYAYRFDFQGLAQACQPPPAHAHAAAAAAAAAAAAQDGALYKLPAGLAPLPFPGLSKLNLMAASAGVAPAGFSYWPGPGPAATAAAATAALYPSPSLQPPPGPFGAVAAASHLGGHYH

The chains behind the UniProt entries cited, without tags or fusion partners. Where a name states a change or a piece, a line headed by the entry shows the natural chain unless it says otherwise.
UniProt O43186: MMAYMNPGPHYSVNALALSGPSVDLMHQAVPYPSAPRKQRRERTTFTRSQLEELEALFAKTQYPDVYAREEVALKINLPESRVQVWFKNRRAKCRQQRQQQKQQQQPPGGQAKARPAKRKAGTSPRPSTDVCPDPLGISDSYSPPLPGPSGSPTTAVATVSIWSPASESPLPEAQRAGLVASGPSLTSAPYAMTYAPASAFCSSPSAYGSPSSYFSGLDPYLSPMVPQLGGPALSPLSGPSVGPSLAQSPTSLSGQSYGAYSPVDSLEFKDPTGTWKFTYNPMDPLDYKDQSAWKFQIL

[2] = biological target: CRX (UniProt O43186)
[3] = biological target: T2, ELF5 (UniProt Q9UKW6-2)
T2 sequence: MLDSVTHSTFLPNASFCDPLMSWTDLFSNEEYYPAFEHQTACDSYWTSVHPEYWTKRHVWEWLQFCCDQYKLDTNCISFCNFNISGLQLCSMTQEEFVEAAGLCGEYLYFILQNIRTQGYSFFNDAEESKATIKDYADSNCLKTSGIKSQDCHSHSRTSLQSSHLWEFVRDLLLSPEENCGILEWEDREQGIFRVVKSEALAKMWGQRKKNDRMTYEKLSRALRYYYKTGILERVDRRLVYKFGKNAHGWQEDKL

Row | Sequence | binding signal [1] | binding signal [2] | binding signal [3]
1 | GCTGCG | 1.1 | 0.856 | 1.04
2 | AGTTAC | 0.93 | 0.735 | 0.99
3 | TCATAG | 0.837 | 0.918 | 0.84
4 | AACAGA | 0.913 | 0.933 | 0.991
5 | TGTCAG | 0.813 | 0.734 | 0.828
6 | AAACAG | 0.977 | 0.795 | 1.03
7 | ACTAGA | 0.951 | 1.16 | 0.906
8 | TAAGAC | 0.899 | 1.72 | 0.872
9 | CCACAC | 1.11 | 0.816 | 0.992
10 | CGTCCT | 1.38 | 0.999 | 1.56
11 | TGATTG | 0.958 | 0.966 | 0.929
12 | ATAGAC | 0.947 | 0.914 | 0.957
13 | GACATG | 0.892 | 0.683 | 0.96
14 | GGGTAT | 0.932 | 0.982 | 0.99
15 | GATATG | 1.08 | 0.879 | 1.14
16 | GGGCAT | 0.883 | 0.769 | 0.83
17 | GCAGCA | 0.973 | 0.72 | 0.918
18 | GGTATG | 0.941 | 0.675 | 0.963
19 | GCGTTG | 0.96 | 0.643 | 0.843
20 | AAGGGA | 0.898 | 0.97 | 0.948
21 | CGACGG | 0.937 | 0.765 | 0.981
22 | ATAGGT | 0.992 | 0.96 | 0.98
23 | CATAGA | 0.843 | 0.901 | 0.863

Row | Sequence | binding signal [1] | binding signal [2] | binding signal [3]
24 | GCGCAC | 0.953 | 0.695 | 0.846
25 | GCAATA | 0.989 | 0.92 | 0.949
26 | GGAATA | 0.843 | 1.02 | 0.98
27 | GGCATA | 0.907 | 0.894 | 0.878
28 | CACAGC | 1.03 | 0.793 | 0.957
29 | CTACTG | 1.33 | 1.08 | 1.32
30 | TTGGAA | 0.894 | 1.07 | 0.99
31 | CAGTTC | 0.957 | 0.682 | 1
32 | GAATGA | 0.929 | 0.921 | 0.944
33 | TATACC | 1.23 | 1.26 | 1.22
34 | ACAAGA | 0.917 | 0.935 | 0.97
35 | ATGGGA | 0.87 | 0.894 | 0.873
36 | CATGGC | 1.04 | 0.842 | 0.9
37 | TGCACC | 1.23 | 0.815 | 1.16
38 | ACGTCA | 0.989 | 0.736 | 0.957
39 | AAGGGT | 0.958 | 0.987 | 1.04
40 | CGCGTA | 0.96 | 0.867 | 0.956
41 | GCAGAT | 0.899 | 1.21 | 0.881
42 | AGCATA | 0.895 | 1 | 0.902
43 | GTACTG | 0.995 | 0.829 | 0.986
44 | CGCTTG | 1.08 | 0.884 | 0.975
45 | GCCTGG | 0.884 | 0.917 | 0.951
46 | AGCAGA | 0.929 | 0.877 | 0.903

Some entries already given with just binding signal [1] and binding signal [3].
Row	Sequence	binding signal [1]	binding signal [3]
29	CTACTG	1.33	1.32
30	TTGGAA	0.894	0.99
31	CAGTTC	0.957	1

Continued.

Row | Sequence | binding signal [1] | binding signal [2] | binding signal [3]
47 | CAGCGC | 0.982 | 0.8 | 0.955
48 | CATCGT | 0.848 | 0.756 | 0.82
49 | GAGCTT | 0.929 | 1.43 | 0.909
50 | TAGATA | 0.945 | 1.48 | 0.971
51 | TCCGTC | 1.38 | 0.978 | 1.57
52 | GGCCTC | 1.07 | 0.889 | 0.983
53 | GTGTAA | 0.92 | 0.916 | 0.884
54 | AATGTG | 0.991 | 0.841 | 0.967
55 | GGATCA | 0.775 | 1.53 | 0.782
56 | ACAGAA | 0.927 | 0.919 | 0.91
57 | GAATGG | 0.944 | 0.824 | 0.843
58 | CATATG | 0.993 | 0.812 | 0.973
59 | AGATGG | 0.801 | 0.871 | 0.863
60 | GACTTA | 0.916 | 1.93 | 0.883
61 | CTTGAG | 0.88 | 0.982 | 0.965
62 | TCAACT | 1.36 | 1.34 | 1.24
63 | CCTGCC | 1.33 | 0.938 | 1.35
64 | AAGGCC | 0.95 | 0.936 | 0.908
65 | CAGATG | 0.97 | 0.927 | 0.975
66 | TCGAGC | 0.946 | 1.01 | 0.877
67 | CCCTAG | 0.936 | 0.959 | 0.921
68 | CCTTAA | 1.33 | 2.17 | 1.44
69 | TCATCG | 0.997 | 1.05 | 0.904

Record cards, from the list above:
GGCATA as listed: binding signal [1] = 0.907; binding signal [2] = 0.894; binding signal [3] = 0.878
TCAACT as listed: binding signal [1] = 1.36; binding signal [2] = 1.34; binding signal [3] = 1.24
ATAGAC as listed: binding signal [1] = 0.947; binding signal [2] = 0.914; binding signal [3] = 0.957

Next entries

Row | Sequence | binding signal [1] | binding signal [2] | binding signal [3]
70 | TGCCCA | 1.21 | 0.916 | 1.01
71 | GTTAGC | 1 | 0.967 | 0.93
72 | AACGGT | 0.901 | 0.816 | 0.981
73 | AAGGTC | 0.893 | 0.824 | 0.901
74 | GAAGGT | 0.776 | 0.788 | 0.894
75 | CCGTTA | 0.957 | 0.872 | 0.986
76 | CTGTGT | 0.881 | 0.659 | 0.764
77 | AGCTAG | 0.96 | 1 | 0.966
78 | AAAGAT | 1.15 | 1.75 | 1.15
79 | AGAAAC | 0.896 | 0.956 | 0.953
80 | ATAACC | 1.22 | 1.27 | 1.16
81 | TAGGCC | 1.05 | 1.21 | 0.921
82 | GATACC | 0.996 | 0.763 | 0.896
83 | GTCGAC | 1.02 | 0.715 | 0.981
84 | CACCTA | 0.963 | 0.966 | 0.92
85 | CAAACG | 0.948 | 0.753 | 0.976
86 | CAACCG | 1.28 | 0.702 | 0.98
87 | CGCGAA | 0.977 | 1.05 | 0.927
88 | CAAGCT | 0.923 | 1.1 | 0.875
89 | CGTTGG | 0.873 | 0.672 | 0.873
90 | TGCGTT | 1 | 0.916 | 0.964

Source: publication PMC7862700
